This is an account of results in PubChem BioAssay AID248 (DTP/NCI, 2004).

The list shows only some results of the screen, not a fair sample: it is rich in T/C values a quarter to a half above the control, in often repeated tests (any T/C) and in doses without a T/C. Other doses and runs of a compound stand elsewhere. T/C is the treated group as % of the vehicle group. Some doses have a count of surviving animals in place of a T/C: the source files T/C as zero there, which appears to mark a toxic dose or a test without result, not a measured value. Some doses without a T/C left all or most animals alive at the check, yet need not have been tolerated: the source hardly ever lists a survival T/C far under the control, and the zero likely stands for such cases as well. Counts of survivors are from the toxicity check (mostly the fifth day) where no day follows; animals may have died later. Schedules are NCI's codes, read here as Q, the interval in days (D) or hours (H), X, the number of doses. Some schedules carry Z or #; the key to these is not given. Some entries hold several experiments; the values are given in rising order. Some molecules as drawn cover several salts, stereoisomers or complexes of the source; a dose is that of the sample tested. Where survival is the endpoint, the PubChem record calls one and a half times the control and up active, and a quarter to a half above the control has no call in these data; cut-offs in other NCI protocols can differ. Brackets with × stand for listed records that agree. Some T/C values are followed by the survivors on the day toxicity was checked, most often the fifth; without a count, all were alive then.

This assay deals with L1210 leukemia ip in BDF1 mice, survival T/C. The assay is described as follows: NCI In Vivo Anticancer Drug Screen. Data for tumor model L1210 Leukemia (intraperitoneal) in B6D2F1 (BDF1) mice. The settings on record: T/C endpoint: mean survival time, higher T/C = longer survival.
Setting [1] is: dose: 200.0 mg/kg/injection, schedule: Q01DX009 (ip), vehicle: Klucel (hydroxypropylcellulose) (HPC).
[2] abbreviates: dose: 400.0 mg/kg/injection, schedule: Q01DX009 (ip), vehicle: Klucel (hydroxypropylcellulose) (HPC).
[3] abbreviates: dose: 400.0 mg/kg/injection, schedule: Q01DX009 (ip), vehicle: saline.
Setting [4] is: dose: 400.0 mg/kg/injection, schedule: Q04DX002 (ip), vehicle: saline with Tween-80.
[5] abbreviates: dose: 400.0 mg/kg/injection, schedule: Q01DX001 (ip), vehicle: Klucel (hydroxypropylcellulose) (HPC).
[6] abbreviates: dose: 400.0 mg/kg/injection, schedule: Q01DX009 (ip), vehicle: saline with Tween-80.
Where [7] appears, read: dose: 25.0 mg/kg/injection, schedule: Q01DX Z (ip), vehicle: methylcellulose (MC).
Where [8] appears, read: dose: 50.0 mg/kg/injection, schedule: Q01DX Z (ip), vehicle: methylcellulose (MC).
Where [9] appears, read: dose: 100.0 mg/kg/injection, schedule: Q01DX Z (ip), vehicle: methylcellulose (MC).
[10] abbreviates: dose: 400.0 mg/kg/injection, schedule: Q01DX001 (ip), vehicle: saline.
Where [11] appears, read: dose: 300.0 mg/kg/injection, schedule: Q01DX001 (ip), vehicle: saline.

On to `NC(=O)NN=C1CCCCC1`, for which the survivor count (dose: 100.0 mg/kg/injection, schedule: Q04DX003 (ip), vehicle: Klucel (hydroxypropylcellulose) (HPC)) is recorded as 2 of 6; the survivor count (dose: 110.0 mg/kg/injection, schedule: Q01DX009 (ip), vehicle: Klucel (hydroxypropylcellulose) (HPC)) is on record as 0 of 6; the survivor count (dose: 165.0 mg/kg/injection, schedule: Q01DX009 (ip), vehicle: Klucel (hydroxypropylcellulose) (HPC)) is recorded as 0 of 6; the survivor count (dose: 200.0 mg/kg/injection, schedule: Q04DX003 (ip), vehicle: Klucel (hydroxypropylcellulose) (HPC)) is 2 of 6; the survivor count (dose: 400.0 mg/kg/injection, schedule: Q04DX003 (ip), vehicle: Klucel (hydroxypropylcellulose) (HPC)) is reported as 6 of 6.
As to `CC(C)NCC(O)c1ccc(O)c(O)c1` (stereo not given), the T/C runs as follows: under setting [1], 133 % of control; under setting [2], 127 % of control [4 of 6 alive]. Further, the survivor count is, setting by setting: under setting [2], 3 of 6; under setting [3], 2 of 5.
On to `O=C(O)c1ccc2c(c1)C(=O)c1ccccc1C2=O`, for which the survivor count under setting [4] is given as 0 of 3.
Regarding `O=C(NCCCl)NC1CCCc2ccccc21` (stereo not given), the survivor count was 2 of 6 (dose: 100.0 mg/kg/injection, schedule: Q01DX009 (ip), vehicle: Klucel (hydroxypropylcellulose) (HPC)); 2 of 6 under setting [1]; 0 of 6 under setting [5].
On to `CCCCN(CCCC)CCP(=O)(OCC)OCC`, for which, under setting [4], the survivor count is listed as 0 of 3.
`Nc1nc(N)c(-c2ccc(Cl)cc2)c(C(=O)O)n1`: the survivor count runs as follows: (dose: 200.0 mg/kg/injection, schedule: Q01DX009 (ip), vehicle: saline with Tween-80) 4 of 6; under setting [6], 0 of 6.
Consider `N/C(=N\[N+](=O)[O-])N(CCCCl)N=O`, for which the T/C is 96 % of control under setting [7], 106 % of control [4 of 6 alive] under setting [8] and 112 % of control under setting [9]. The survivor count is, setting by setting: under setting [7], 0 of 6 and 3 of 6; under setting [8], 0 of 6 and 3 of 6; under setting [9], 0 of 6; (dose: 135.0 mg/kg/injection, schedule: Q01DX Z (ip), vehicle: carboxymethylcellulose (CMC)) 4 of 6; (dose: 200.0 mg/kg/injection, schedule: Q01DX Z (ip), vehicle: methylcellulose (MC)) 0 of 6; under setting [10], 2 of 4.
Turning to `N[n+]1cccc2ccccc21`, the survivor count is 3 of 6 under setting [10] and 0 of 6 (dose: 400.0 mg/kg/injection, schedule: Q04DX003 (ip), vehicle: saline).
With `O=[N+]([O-])c1ccc(N2N=NC3CC/C(=C\c4cccc([N+](=O)[O-])c4)C32N2CCOCC2)cc1` (stereo not given), the survivor count was 0 of 3 (dose: 100.0 mg/kg/injection, schedule: Q04DX002 (ip), vehicle: Klucel (hydroxypropylcellulose) (HPC)); 0 of 3 (dose: 200.0 mg/kg/injection, schedule: Q04DX002 (ip), vehicle: Klucel (hydroxypropylcellulose) (HPC)); 0 of 3 (dose: 400.0 mg/kg/injection, schedule: Q04DX002 (ip), vehicle: Klucel (hydroxypropylcellulose) (HPC)).
As for `CC1CCCC[N-]1.CC1CCCC[N-]1.[Cl][Pt+2][Cl]` (stereo not given), under setting [2], the survivor count is reported as 4 of 6.
Take `COC(=O)C(CCC1CCCCN1)(c1ccccc1)c1ccccc1` (stereo not given): the T/C runs as follows: (dose: 50.0 mg/kg/injection, schedule: Q01DX009 (ip), vehicle: saline) 148 % of control (2×); (dose: 75.0 mg/kg/injection, schedule: Q01DX009 (ip), vehicle: saline) 125 [4 of 6 alive], 129, 134 % of control. Besides, the survivor count is 5 of 6 (dose: 87.0 mg/kg/injection, schedule: Q01DX009 (ip), vehicle: saline) and 3 of 6 (dose: 110.0 mg/kg/injection, schedule: Q01DX009 (ip), vehicle: saline).
Turning to `CC(C)(Cl)/N=N/C(C)(C)Cl`, the survivor count runs as follows: (dose: 200.0 mg/kg/injection, schedule: Q01DX001 (ip), vehicle: Klucel (hydroxypropylcellulose) (HPC)) 6 of 6; under setting [5], 1 of 6.
For `CSC(=S)NNC(=O)c1ccc(C(F)(F)F)cc1`, the survivor count is reported as 0 of 6 (dose: 75.0 mg/kg/injection, schedule: Q01DX001 (ip), vehicle: saline); 0 of 6 (dose: 150.0 mg/kg/injection, schedule: Q01DX001 (ip), vehicle: saline); 0 of 6 under setting [11].
Consider `CC1(C)CC(=O)C(C)(C)C(=O)C1`, for which the survivor count reads like this: (dose: 25.0 mg/kg/injection, schedule: Q01DX009 (ip), vehicle: saline with Tween-80) 5 of 6; (dose: 50.0 mg/kg/injection, schedule: Q04DX003 (ip), vehicle: saline with Tween-80) 0 of 6; (dose: 100.0 mg/kg/injection, schedule: Q04DX003 (ip), vehicle: saline with Tween-80) 0 of 6.
On to `CC(=O)/C(=C(/C)OB(F)F)C(C)C`, for which, under setting [10], the survivor count was 0 of 6.
In the case of `CCN(CC)CCC(CNC(=O)CN(CC)CC)(c1cccc2ccccc12)C(C)C` (stereo not given), the survivor count is 1 of 6 (dose: 100.0 mg/kg/injection, schedule: Q01DX009 (ip), vehicle: saline); 0 of 6 (dose: 200.0 mg/kg/injection, schedule: Q01DX009 (ip), vehicle: saline); 0 of 6 under setting [3].
As to `CCCCP(=O)(CCCC)Oc1ccccc1F`, the survivor count under setting [6] is given as 0 of 6.
As for `C=CP(c1ccccc1)c1ccccc1`, the survivor count (dose: 400.0 mg/kg/injection, schedule: Q01DX009 (ip), vehicle: saline sonified) is recorded as 1 of 6.
As for `CCN(CC)CCOCCN(CC)CC`, the survivor count under setting [11] is 3 of 6.
